Test [1] addresses T1, cynomolgus monkey PD-L1 (cynomolgus monkey, UniProt G7PSE7 19-238).
T1 construct: also called cyno PD-L1
In words: ELISA or FACS. Background: An ELISA detects its analyte on a solid surface through an enzyme-linked reagent.

Test [2] addresses T1, cynomolgus monkey PD-L1. In words: ELISA, antigen coated on plate.

No constants are given. Whether binding was seen depends on the method and setting. Some binding calls cover weakened binding; strength is not graded here.

B1: 2.74.15.hAb8 (antibody, V domains shown)
VH: QVQLQESGPGLVKPSETLSLTCTVSGYSITSGYIWHWIRQPPGKGLEWIGYIHYSGTTDFNPSLESRVTISVDTSKNQFSLKLSSVTAADTAVYYCAREGRSYGGFAYWGQGTLVTVSS
VL: DIQMTQSPSSLSASVGDRVTITCKASQSVSNGVAWYQQKPGKVPKLLIYYASNRFTGVPSRFSGSGSGTDFTLTISSLQPEDVATYYCQQDYSSPFTFGQGTKLEIK
notes: Humanized antibody with a human constant region of IgG4 isotype
With B1, the binding result in the test with cynomolgus monkey PD-L1 [1] and in the test with cynomolgus monkey PD-L1 [2] was “binds” throughout.

B2: 2.74.15.hAb5 (antibody, V domains shown)
VH: QVQLQESGPGLVKPSETLSLTCTVTGYSITSGYIWHWIRQPAGKGLEWIGYIHYSGTTDFNPSLESRVTISVDTSKNQFSLKLSSVTAADTAVYYCAREGRSYGGFAYWGQGTLVTVSS
VL: DIQLTQSPSFLSASVGDRVTITCKASQSVSNGVAWYQQKPGKAPKLLIYYASNRFTGVPSRFSGSGSGTEFTLTISSLQPEDFATYYCQQDYSSPFTFGQGTKLEIK
notes: as for B1
With B2, the binding entry in the test with cynomolgus monkey PD-L1 [1] and with cynomolgus monkey PD-L1 [2] was “binds” in each case.

B3: 2.74.15.hAb4 (antibody, V domains shown)
VH: QVQLQESGPGLVKPSETLSLTCTVSGYSITSGYIWHWIRQPPGKGLEWIGYIHYSGTTDFNPSLESRVTISVDTSKNQFSLKLSSVTAADTAVYYCAREGRSYGGFAYWGQGTLVTVSA
VL: SFVMTQSPSSLSASVGDRVTITCKASQSVSNGVAWYQQKPGKVPKLLIYYASNRFTGVPSRFSGSGSGTDFTLTISSLQPEDVATYYCQQDYSSPFTFGSGTELEIK
notes: as for B1
With B3, the binding result with cynomolgus monkey PD-L1 [1] and with cynomolgus monkey PD-L1 [2] was “binds” each time.

B4: 2.74.15.hAb7 (antibody, V domains shown)
VH: QVQLQESGPGLVKPSETLSLTCTVSGYSITSGYIWHWIRQPPGKGLEWIGYIHYSGTTDFNPSLESRVTISVDTSKNQFSLKLSSVTAADTAVYYCAREGRSYGGFAYWGQGTLVTVSS
VL: DIQLTQSPSFLSASVGDRVTITCKASQSVSNGVAWYQQKPGKAPKLLIYYASNRFTGVPSRFSGSGSGTEFTLTISSLQPEDFATYYCQQDYSSPFTFGQGTKLEIK
notes: as for B1
For the molecule B4, the binding entry in the test with cynomolgus monkey PD-L1 [1] and with cynomolgus monkey PD-L1 [2] was “binds” throughout.

B5: 2.74.15.hAb6 (antibody, V domains shown)
VH: QVQLQESGPGLVKPSETLSLTCTVTGYSITSGYIWHWIRQPAGKGLEWIGYIHYSGTTDFNPSLESRVTISVDTSKNQFSLKLSSVTAADTAVYYCAREGRSYGGFAYWGQGTLVTVSS
VL: DIQMTQSPSSLSASVGDRVTITCKASQSVSNGVAWYQQKPGKVPKLLIYYASNRFTGVPSRFSGSGSGTDFTLTISSLQPEDVATYYCQQDYSSPFTFGQGTKLEIK
notes: as for B1
As for B5, the binding entry with cynomolgus monkey PD-L1 [1] and in the test with cynomolgus monkey PD-L1 [2] was “binds” in each case.
